From publication PMC7862700
The entries are a selection whose mix differs from that of the whole data set. For part of these data: At the low end of the ranking the order means little. This is one part of the list. For part of these data: Construct or isoform of the protein are uncertain.

Molecular target: T1, GABPA (UniProt Q06546)
T1 sequence: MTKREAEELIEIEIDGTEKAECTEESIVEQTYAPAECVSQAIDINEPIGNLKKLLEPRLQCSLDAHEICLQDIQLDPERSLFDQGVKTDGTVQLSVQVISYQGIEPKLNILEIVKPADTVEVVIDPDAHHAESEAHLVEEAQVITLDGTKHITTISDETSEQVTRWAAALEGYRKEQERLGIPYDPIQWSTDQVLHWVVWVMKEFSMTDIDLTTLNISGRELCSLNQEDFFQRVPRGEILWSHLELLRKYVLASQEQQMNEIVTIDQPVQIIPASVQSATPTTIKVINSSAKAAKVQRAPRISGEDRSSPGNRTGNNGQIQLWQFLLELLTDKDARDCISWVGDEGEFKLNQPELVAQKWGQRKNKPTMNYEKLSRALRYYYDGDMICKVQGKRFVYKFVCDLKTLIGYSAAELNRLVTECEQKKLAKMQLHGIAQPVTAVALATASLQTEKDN
Assay: DAPPL (digital affinity profiling via proximity ligation, sequencing)
Conditions: 10 mM Tris-HCl pH 7.5, 50 mM NaCl, 1 mM DTT, 4% glycerol, room temperature, 30 min; GST-TFs on glutathione beads, 16-mer random dsDNA library, 0.1% …; high values mean tight binding; double strand, one strand shown; scale: fold enrichment (6-mer frequency, TF over GST control)

Sequence	binding signal
GAAAGC	0.91
AGACTC	0.88
ACGTCA	0.99
GGTGGT	0.941
CCACAG	0.945
GATCAC	0.968
CGAGAT	0.933
AAGGCC	0.92
ACAAGT	0.961
CGAAGA	0.802
GACCGA	0.848
GCAGCC	0.982
GAAAGT	0.896
GACGTT	0.915
GGCAAT	1
GTGCCT	0.981
ACGAAG	0.952
TATCCC	1.53
ACGCGA	0.911
GCGCCG	1.03

Sequence	binding signal
TTCAGA	0.991
AGGTCC	0.995
TGGAAG	0.997
CAGAAG	0.822
CGCTGT	0.973
GTTGTC	0.847
GCCAAC	0.872
CAGATA	0.933
AAGGTC	0.925
GCCACA	0.986
GCGTTA	0.981
GGTTAC	0.929
CGATGT	1.08
TTAGTC	0.83
GAAAGG	0.969
GCCTGA	1.11
AGCTAG	0.975
TGCATT	1.37
TCGAGA	0.63
ACAAAA	1.15

Molecular target: T2, ETS1 (UniProt P14921)
T2 sequence: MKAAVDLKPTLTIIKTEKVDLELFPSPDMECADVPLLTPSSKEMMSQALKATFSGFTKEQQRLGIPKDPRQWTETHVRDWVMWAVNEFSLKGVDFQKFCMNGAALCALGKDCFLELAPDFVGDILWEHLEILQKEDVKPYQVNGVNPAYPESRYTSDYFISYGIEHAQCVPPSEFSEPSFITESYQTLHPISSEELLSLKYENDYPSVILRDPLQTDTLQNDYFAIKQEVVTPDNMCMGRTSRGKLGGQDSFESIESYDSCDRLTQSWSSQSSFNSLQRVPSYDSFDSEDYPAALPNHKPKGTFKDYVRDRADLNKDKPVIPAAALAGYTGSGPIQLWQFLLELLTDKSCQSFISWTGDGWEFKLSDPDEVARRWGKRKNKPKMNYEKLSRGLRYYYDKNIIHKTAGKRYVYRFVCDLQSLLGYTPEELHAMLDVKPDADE
Assay: as above
Conditions: 10 mM Tris-HCl pH 7.5, 50 mM NaCl, 1 mM DTT, 4% glycerol, room temperature, 30 min; GST-TFs on glutathione beads, 16-mer random dsDNA library, 0.1% …; high values mean tight binding; double strand, one strand shown; scale: fold enrichment (6-mer frequency, TF over GST control)

Sequence	binding signal
GAAAGC	0.845
AGACTC	0.952
ACGTCA	0.959
GGTGGT	0.928
CCACAG	0.906
GATCAC	1.01
CGAGAT	0.859
AAGGCC	0.923
ACAAGT	0.934
CGAAGA	0.822
GACCGA	0.878
GCAGCC	1.02
GAAAGT	0.828
GACGTT	0.9
GGCAAT	0.932
GTGCCT	1.02
ACGAAG	0.923
TATCCC	1.6
ACGCGA	0.888
GCGCCG	1.02

Sequence	binding signal
TTCAGA	0.993
AGGTCC	1
TGGAAG	0.971
CAGAAG	0.775
CGCTGT	0.931
GTTGTC	0.842
GCCAAC	0.955
CAGATA	0.884
AAGGTC	0.925
GCCACA	0.974
GCGTTA	0.979
GGTTAC	1.05
CGATGT	0.994
TTAGTC	0.871
GAAAGG	0.927
GCCTGA	1.06
AGCTAG	1.09
TGCATT	1.4
TCGAGA	0.66
ACAAAA	1.17

Molecular target: T3, SPDEF (UniProt O95238)
T3 sequence: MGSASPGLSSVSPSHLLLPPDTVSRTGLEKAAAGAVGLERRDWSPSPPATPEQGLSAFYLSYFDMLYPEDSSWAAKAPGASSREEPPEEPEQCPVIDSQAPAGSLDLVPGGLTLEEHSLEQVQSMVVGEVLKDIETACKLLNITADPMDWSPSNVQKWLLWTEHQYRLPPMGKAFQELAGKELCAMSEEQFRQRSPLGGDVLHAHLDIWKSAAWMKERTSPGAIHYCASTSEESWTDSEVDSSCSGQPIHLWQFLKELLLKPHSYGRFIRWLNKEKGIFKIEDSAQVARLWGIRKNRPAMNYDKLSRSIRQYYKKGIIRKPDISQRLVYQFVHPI
Assay: as above
Conditions: 10 mM Tris-HCl pH 7.5, 50 mM NaCl, 1 mM DTT, 4% glycerol, room temperature, 30 min; GST-TFs on glutathione beads, 16-mer random dsDNA library, 0.1% …; high values mean tight binding; double strand, one strand shown; scale: fold enrichment (6-mer frequency, TF over GST control)

Sequence	binding signal
GAAAGC	0.893
AGACTC	0.873
ACGTCA	0.907
GGTGGT	0.945
CCACAG	0.898
GATCAC	1
CGAGAT	0.938
AAGGCC	0.952
ACAAGT	0.894
CGAAGA	0.773
GACCGA	0.855
GCAGCC	0.966
GAAAGT	0.82
GACGTT	0.937
GGCAAT	0.914
GTGCCT	1.02
ACGAAG	0.851
TATCCC	1.72
ACGCGA	0.898
GCGCCG	0.931

Sequence	binding signal
TTCAGA	1.01
AGGTCC	1.24
TGGAAG	0.913
CAGAAG	0.713
CGCTGT	0.961
GTTGTC	0.932
GCCAAC	0.835
CAGATA	0.862
AAGGTC	0.996
GCCACA	0.976
GCGTTA	0.869
GGTTAC	0.978
CGATGT	1.12
TTAGTC	0.773
GAAAGG	0.977
GCCTGA	0.999
AGCTAG	0.87
TGCATT	1.41
TCGAGA	0.573
ACAAAA	1.11
